Here are results for 120 sequences from PMC7862700.

This is a selection; strong and weak results do not stand in their true shares. For part of these data: At the low end of the ranking the order means little. The list shows a part of the results. For part of these data: The exact form of the protein is not confirmed.

Test [1] concerns the target T1, ETS1 (UniProt P14921).
T1 sequence: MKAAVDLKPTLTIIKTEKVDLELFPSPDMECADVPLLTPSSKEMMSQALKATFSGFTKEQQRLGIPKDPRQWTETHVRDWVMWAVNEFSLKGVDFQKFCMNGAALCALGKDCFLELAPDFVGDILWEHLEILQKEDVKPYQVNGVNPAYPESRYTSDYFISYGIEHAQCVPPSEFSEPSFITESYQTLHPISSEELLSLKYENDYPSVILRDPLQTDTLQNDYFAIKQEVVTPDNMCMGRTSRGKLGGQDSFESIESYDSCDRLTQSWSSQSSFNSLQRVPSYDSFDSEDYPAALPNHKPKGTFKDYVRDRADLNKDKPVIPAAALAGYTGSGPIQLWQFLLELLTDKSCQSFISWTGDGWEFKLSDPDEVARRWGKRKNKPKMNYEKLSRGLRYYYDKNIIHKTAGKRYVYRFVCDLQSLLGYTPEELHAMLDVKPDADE
The experiment in a line: DAPPL (digital affinity profiling via proximity ligation, sequencing). To be noted: 10 mM Tris-HCl pH 7.5, 50 mM NaCl, 1 mM DTT, 4% glycerol, room temperature, 30 min; GST-TFs on glutathione beads, 16-mer random dsDNA library, 0.1% …; high values mean tight binding; double strand, one strand shown; scale: fold enrichment (6-mer frequency, TF over GST control).

Test [2] concerns the target T2, GABPA (UniProt Q06546).
T2 sequence: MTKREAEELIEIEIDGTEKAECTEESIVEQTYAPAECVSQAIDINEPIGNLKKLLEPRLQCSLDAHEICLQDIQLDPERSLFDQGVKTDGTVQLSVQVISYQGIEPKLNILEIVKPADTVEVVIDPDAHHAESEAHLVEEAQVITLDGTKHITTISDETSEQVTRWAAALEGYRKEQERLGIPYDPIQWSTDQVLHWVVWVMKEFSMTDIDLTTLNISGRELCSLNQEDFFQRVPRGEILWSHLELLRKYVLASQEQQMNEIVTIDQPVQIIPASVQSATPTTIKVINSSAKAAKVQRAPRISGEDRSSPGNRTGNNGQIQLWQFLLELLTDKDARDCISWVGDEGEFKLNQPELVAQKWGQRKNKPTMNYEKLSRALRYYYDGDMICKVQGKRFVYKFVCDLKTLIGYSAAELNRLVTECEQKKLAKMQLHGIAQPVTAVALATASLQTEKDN
The description is as above. To be noted: 10 mM Tris-HCl pH 7.5, 50 mM NaCl, 1 mM DTT, 4% glycerol, room temperature, 30 min; GST-TFs on glutathione beads, 16-mer random dsDNA library, 0.1% …; high values mean tight binding; double strand, one strand shown; scale: fold enrichment (6-mer frequency, TF over GST control).

AAGAAT had a binding signal in test [1] of 1.15.
In test [1], GCTTCG yielded a binding signal of 1.4.
Consider CACTTA, for which, in test [1], the binding signal turned out to be 1.29.
CTCTGT: in test [1], the binding signal turned out to be 1.39.
As for GACATC, the binding signal in test [1] came out at 1.2.
Sequence ATTCGT showed a binding signal in test [1] of 1.29.
In test [1], ACTCCT registered a binding signal of 1.59.
For the sequence AAAAAG, the binding signal in test [1] was determined as 1.39.
Take CGACCC: the binding signal in test [1] was 1.34.
For the sequence CGTTCG, in test [1], the binding signal is 1.26.
As to CCGCTA, the binding signal in test [1] came to 1.33.
AAATGT had a binding signal in test [1] of 1.34.
In turn, TACGAT showed a binding signal in test [1] of 1.1.
Turning to TAAAAT, the binding signal in test [1] was 1.23.
In turn, CTAGGT came in with a binding signal in test [1] of 1.19.
TCTGAT gave a binding signal in test [1] of 1.18.
The same measure, in the same setting: under TTCATA stands 1.19; under TCTCAA, 1.35.
In turn, GATGAC registered a binding signal in test [1] of 1.45.
On the same count and under the same terms, under TGCAAA stands 1.1; under TGACCT, 1.68.
Regarding CTGGAT, the binding signal in test [1] stood at 1.35.
ACCGAC: the binding signal in test [1] came to 1.33.
The sequence CGCCTC registered a binding signal in test [1] of 1.48.
On to AAAGCG, for which the binding signal in test [1] was determined as 1.13.
TTTACT had a binding signal in test [1] of 1.47.
Still for that read-out and setting: under CGGCTA stands 1.14; under CCGCAC, 1.53.
In test [1], TGAAAC displayed a binding signal of 1.25.
As for TAATCT, the binding signal in test [1] came out at 1.42.
Regarding TATCTC, the binding signal in test [1] amounted to 1.27.
Turning to AATAGA, the binding signal in test [1] turned out to be 1.06.
CCCCCG returned a binding signal in test [1] of 1.06.
On to TCACGC, for which, in test [1], the binding signal is 1.24.
As for CTTTTG, the binding signal in test [1] turned out to be 1.32.
ATCCCC showed a binding signal in test [1] of 1.26.
Same read-out and setting: then TAAACG, with 1.18; and CGTTAA, with 1.17; and GCGTTC, with 1.27.
The same measure, in the same setting: then ATATGT, with 1.14; and TACCAC, with 1.23.
In turn, AATCAA displayed a binding signal in test [1] of 1.15.
Take CTCCTA: the binding signal was found to be 1.38 in test [2] and 1.44 in test [1].
AGGAAA: the results for the binding signal in test [2] and in test [1] were 1.31 and 1.41, respectively.
In test [1], CAGGAT showed a binding signal of 1.24.
Same read-out and setting: then TAAGCT, with 1.18.
As to ACCACT, the binding signal worked out at 1.35 in test [2] and 1.31 in test [1].
On the same counts, the results for TACTAG are 1.07 and 1.11.
The sequence TCCCTT had a binding signal in test [1] of 1.56.
Consider CTCCTC, for which the binding signal in test [1] was found to be 1.42.
On to TAAAAG, for which the binding signal in test [2] stood at 1.24; in test [1], 1.13.
On to CAAAAC, for which the binding signal in test [2] turned out to be 1.3; in test [1], 1.31.
On the same counts, the results for TTTCGA are 1.51 and 1.51.
On the same counts, the results for AGAATT are 1.11 and 1.26.
Turning to ACCTGC, in test [1], the binding signal was determined as 1.53.
Take TGACTT: the results for the binding signal in test [2] and in test [1] were 1.38 and 1.46, respectively.
Sequence TCACGA had a binding signal in test [1] of 1.2.
Take CTGAAT: the figures for the binding signal in test [2] and in test [1] were 1.36 and 1.55, respectively.
In the case of CGATAA, the binding signal in test [2] and in test [1] was 1.06 in each case.
The sequence ATCTTT gave a binding signal in test [1] of 1.26.
In turn, CTAAAC showed a binding signal in test [1] of 1.23.
GATTTC: the figures for the binding signal in test [2] and in test [1] were 1.55 and 1.68, respectively.
ATACTG: the binding signal in test [1] amounted to 1.11.
With ACTCTA, the binding signal in test [2] worked out at 1.52; in test [1], 1.46.
As for TAACGA, the binding signal is 1.07 in test [2] and 1.13 in test [1].
For AATCCC, the figures for the binding signal in test [2] and in test [1] were 1.38 and 1.24, respectively.
Regarding ATTATG, the binding signal in test [1] was found to be 1.28.
As to TTCCTT, the binding signal in test [2] worked out at 1.84; in test [1], 2.14.
Consider TCCTTT, for which the binding signal in test [2] worked out at 1.72; in test [1], 1.77.
Turning to GCGACT, the binding signal in test [2] stood at 1.13; in test [1], 1.16.
For GAAGTT, in that order: 1.63 and 1.72.
In the case of CATATT, the binding signal in test [2] and in test [1] was 1.27 throughout.
The sequence ATATGA showed a binding signal in test [1] of 1.13.
Turning to TGCCAA, the binding signal was 1.06 in test [2] and 1.11 in test [1].
Turning to CTATAC, the binding signal in test [2] was 1.35; in test [1], 1.29.
For AATAGC, in that order: 1.17 and 1.05.
For TAATAG, in test [1], the binding signal was found to be 1.17.
As to CTATAA, the figures for the binding signal in test [2] and in test [1] were 1.18 and 1.25, respectively.
Turning to AATGTC, the binding signal in test [2] came out at 1.23; in test [1], 1.17.
On the same counts, the results for AGCAGC are 1.11 and 1.17.
For GTATAT, in that order: 1.13 and 1.27.
On the same counts, the results for TTTGGC are 1.25 and 1.25.
Turning to ATCTCT, the binding signal came out at 1.33 in test [2] and 1.31 in test [1].
On to TCCGAC, for which the binding signal was found to be 1.32 in test [2] and 1.39 in test [1].
As for ACGAAC, the values for the binding signal in test [2] and in test [1] were 1.19 and 1.18, respectively.
Turning to TATGGA, the binding signal came out at 1.09 in test [2] and 1.12 in test [1].
As to TTCACC, the binding signal came to 1.34 in test [2] and 1.36 in test [1].
As to CTATAT, the binding signal in test [2] turned out to be 1.35; in test [1], 1.57.
Turning to CCGGAA, the binding signal in test [2] was determined as 4.9; in test [1] it was 5.16.
On to AAGATA, for which the binding signal was found to be 1.14 in test [2] and 1.11 in test [1].
Take CTGGAC: the binding signal in test [2] turned out to be 1.17; in test [1] it was 1.14.
On to AGTATC, for which the binding signal in test [2] came out at 1.11; in test [1], 1.16.
As to CTAGTT, the binding signal in test [2] worked out at 1.42; in test [1], 1.3.
As for GACCTG, the binding signal in test [2] worked out at 1.19; in test [1], 1.23.
In the case of TGACGA, the binding signal is 1.21 in test [2] and 1.18 in test [1].
For TGTGGA, in that order: 1.06 and 1.01.
For CGCTTC, in that order: 1.99 and 2.05.
For GATATA, in that order: 1.15 and 1.07.
Take CGATAC: the binding signal in test [2] is 1.27; in test [1] it was 1.09.
ACCAAC: the binding signal came out at 1.23 in test [2] and 1.22 in test [1].
As for CGACCT, the binding signal is 1.54 in test [2] and 1.57 in test [1].
On the same counts, the results for GTTCCG are 1.64 and 1.82.
On to CGTATT, for which the binding signal in test [2] stood at 1.12; in test [1] it was 1.14.
Consider TGGTTA, for which the binding signal in test [2] was found to be 1.09; in test [1], 1.12.
Turning to AAGGAA, the binding signal in test [2] was determined as 1.2; in test [1], 1.23.
With TACCCG, the binding signal in test [2] was determined as 1.51; in test [1], 1.52.
On to GAACCC, for which the binding signal came to 1.16 in test [2] and 1.17 in test [1].
For GGCTCT, in that order: 1.23 and 1.2.
Take CAAAAT: the figures for the binding signal in test [2] and in test [1] were 1.2 and 1.23, respectively.
For CTTCAT, the results for the binding signal in test [2] and in test [1] were 1.45 and 1.52, respectively.
Turning to TACGAA, the binding signal came out at 1.3 in test [2] and 1.22 in test [1].
On to CCCGGA, for which the binding signal is 2.61 in test [2] and 2.74 in test [1].
With TGATCT, the values for the binding signal in test [2] and in test [1] were 1.18 and 1.15, respectively.
As to TACATC, the binding signal came out at 1.51 in test [2] and 1.63 in test [1].
In the case of CTTCGG, the values for the binding signal in test [2] and in test [1] were 1.58 and 1.42, respectively.
For AACGAA, in that order: 1.15 and 1.14.
On the same counts, the results for CATCGA are 0.979 and 1.02.
Regarding TTAAGT, the binding signal in test [2] was 1.16; in test [1], 1.14.
GCCTCC: the binding signal in test [2] is 1.23; in test [1], 1.29.
As to CTTACC, the binding signal in test [2] was 1.26; in test [1] it was 1.31.
